No constants are given. Whether binding was seen depends on the method and setting. Some binding calls cover weakened binding; strength is not graded here.

Amino acid sequences for entries named in this document (tags omitted). Residues count along the entry.
UniProt P05161, residues 1-157: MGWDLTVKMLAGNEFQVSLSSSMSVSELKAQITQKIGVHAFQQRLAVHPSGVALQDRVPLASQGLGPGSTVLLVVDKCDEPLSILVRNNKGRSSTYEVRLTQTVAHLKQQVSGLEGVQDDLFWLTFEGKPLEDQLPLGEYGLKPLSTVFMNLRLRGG
UniProt Q9UPU5: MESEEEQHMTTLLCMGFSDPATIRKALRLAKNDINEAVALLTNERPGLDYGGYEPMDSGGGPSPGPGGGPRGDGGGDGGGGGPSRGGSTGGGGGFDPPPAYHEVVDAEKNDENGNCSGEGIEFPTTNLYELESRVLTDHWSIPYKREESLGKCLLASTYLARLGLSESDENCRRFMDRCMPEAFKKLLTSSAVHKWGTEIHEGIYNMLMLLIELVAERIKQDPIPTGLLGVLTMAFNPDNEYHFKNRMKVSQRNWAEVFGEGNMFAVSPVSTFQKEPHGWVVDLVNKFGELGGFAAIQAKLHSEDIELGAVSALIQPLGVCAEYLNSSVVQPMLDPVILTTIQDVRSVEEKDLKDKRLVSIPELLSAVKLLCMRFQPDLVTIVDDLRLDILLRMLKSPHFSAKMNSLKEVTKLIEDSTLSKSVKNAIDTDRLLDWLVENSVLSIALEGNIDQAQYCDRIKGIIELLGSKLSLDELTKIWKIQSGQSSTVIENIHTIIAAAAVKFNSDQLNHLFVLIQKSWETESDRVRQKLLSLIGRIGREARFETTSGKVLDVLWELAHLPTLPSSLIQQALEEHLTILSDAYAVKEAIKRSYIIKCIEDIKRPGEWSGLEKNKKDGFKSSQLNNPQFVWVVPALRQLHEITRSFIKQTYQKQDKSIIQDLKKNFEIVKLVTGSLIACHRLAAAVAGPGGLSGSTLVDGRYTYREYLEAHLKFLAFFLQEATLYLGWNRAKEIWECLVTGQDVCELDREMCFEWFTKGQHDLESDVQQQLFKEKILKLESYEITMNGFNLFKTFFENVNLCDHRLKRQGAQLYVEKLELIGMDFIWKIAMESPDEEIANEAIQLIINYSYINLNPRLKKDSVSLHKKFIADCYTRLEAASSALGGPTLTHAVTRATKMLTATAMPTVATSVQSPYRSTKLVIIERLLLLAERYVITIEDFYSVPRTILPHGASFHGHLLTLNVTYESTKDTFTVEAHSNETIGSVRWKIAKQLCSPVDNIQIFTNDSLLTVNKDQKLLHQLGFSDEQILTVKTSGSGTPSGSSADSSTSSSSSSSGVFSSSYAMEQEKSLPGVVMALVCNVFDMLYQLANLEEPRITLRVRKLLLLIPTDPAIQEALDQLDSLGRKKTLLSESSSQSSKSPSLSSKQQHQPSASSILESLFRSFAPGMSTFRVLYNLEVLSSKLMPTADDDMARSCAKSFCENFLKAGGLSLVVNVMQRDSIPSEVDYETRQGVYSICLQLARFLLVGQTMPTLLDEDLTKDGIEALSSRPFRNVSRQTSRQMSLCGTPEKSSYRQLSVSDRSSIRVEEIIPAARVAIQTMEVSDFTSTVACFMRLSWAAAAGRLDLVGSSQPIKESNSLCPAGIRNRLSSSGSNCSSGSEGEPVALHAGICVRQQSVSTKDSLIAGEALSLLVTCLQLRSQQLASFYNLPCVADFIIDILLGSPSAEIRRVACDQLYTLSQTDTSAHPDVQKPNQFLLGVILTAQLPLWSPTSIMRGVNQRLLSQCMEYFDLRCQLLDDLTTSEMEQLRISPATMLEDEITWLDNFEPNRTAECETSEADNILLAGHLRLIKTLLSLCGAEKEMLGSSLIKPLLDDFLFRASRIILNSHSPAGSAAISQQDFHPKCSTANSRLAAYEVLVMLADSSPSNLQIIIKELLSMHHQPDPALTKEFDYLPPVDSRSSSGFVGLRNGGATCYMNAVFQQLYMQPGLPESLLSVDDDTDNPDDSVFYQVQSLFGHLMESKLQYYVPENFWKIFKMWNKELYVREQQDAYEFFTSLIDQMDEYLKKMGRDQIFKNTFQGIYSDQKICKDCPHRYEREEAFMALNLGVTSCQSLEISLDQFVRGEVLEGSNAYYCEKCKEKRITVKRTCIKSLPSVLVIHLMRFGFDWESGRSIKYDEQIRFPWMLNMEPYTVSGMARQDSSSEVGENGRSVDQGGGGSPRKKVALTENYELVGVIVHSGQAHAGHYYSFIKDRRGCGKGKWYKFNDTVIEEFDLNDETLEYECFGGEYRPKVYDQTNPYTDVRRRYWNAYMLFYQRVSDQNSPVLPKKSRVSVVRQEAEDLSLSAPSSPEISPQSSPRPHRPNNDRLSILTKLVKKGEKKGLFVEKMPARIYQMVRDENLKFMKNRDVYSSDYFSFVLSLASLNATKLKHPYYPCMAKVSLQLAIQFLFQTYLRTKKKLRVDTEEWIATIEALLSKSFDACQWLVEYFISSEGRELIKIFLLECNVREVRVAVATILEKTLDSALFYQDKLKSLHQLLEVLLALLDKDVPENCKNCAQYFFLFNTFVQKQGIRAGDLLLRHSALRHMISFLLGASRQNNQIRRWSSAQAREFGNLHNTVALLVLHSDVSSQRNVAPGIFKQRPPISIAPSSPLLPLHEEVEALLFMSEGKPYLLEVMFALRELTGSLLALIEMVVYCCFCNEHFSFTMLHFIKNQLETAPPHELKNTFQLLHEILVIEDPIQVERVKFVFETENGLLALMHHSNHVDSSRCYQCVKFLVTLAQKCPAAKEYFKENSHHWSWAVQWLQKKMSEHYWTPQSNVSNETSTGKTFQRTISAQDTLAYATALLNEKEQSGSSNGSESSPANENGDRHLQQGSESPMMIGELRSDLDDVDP

The assay has as its target untagged human full-length ISG15 propargylamide probe (human) (UniProt P05161). Description: covalent activity-based probe labelling.

For “recombinant full-length human USP24 (from UniProt Q9UPU5 1-2620) (enzyme)”, the binding result is recorded as “binds”.

The record behind these values is paper doi:10.1101/2024.09.06.611391.
